Laboratory results taken from publication PMC11137105.
Results are given in words; binding and its absence hold for the method and conditions named. For some assays here: Binding seen in cells or lysates may run through a third protein. Some binding calls cover weakened binding; strength is not graded here.

Amino acid sequences for entries named in this document (tags omitted).
UniProt P60484: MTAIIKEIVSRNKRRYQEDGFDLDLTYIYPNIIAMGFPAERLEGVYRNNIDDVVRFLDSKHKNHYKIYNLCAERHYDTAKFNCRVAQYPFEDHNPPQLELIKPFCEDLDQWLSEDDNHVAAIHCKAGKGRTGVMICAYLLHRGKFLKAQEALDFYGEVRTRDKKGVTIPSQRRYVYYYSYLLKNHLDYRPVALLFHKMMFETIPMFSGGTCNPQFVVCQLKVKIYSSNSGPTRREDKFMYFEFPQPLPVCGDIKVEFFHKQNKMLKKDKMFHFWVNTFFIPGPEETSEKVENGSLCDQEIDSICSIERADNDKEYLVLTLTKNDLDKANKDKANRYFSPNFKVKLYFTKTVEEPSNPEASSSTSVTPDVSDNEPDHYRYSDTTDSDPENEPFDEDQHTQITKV

Tests used:
[1] = target: PTEN (phosphatase and tensin homolog) (human (endogenous in MCF-7)) (UniProt P60484); experiment: native gel or EMSA; native PAGE of protein extracted from MCF-7 cells, untreated or treated with 1 mM H2O2; nonreducing nondenaturing sample buffer, no SDS, separated on ice; immunoblot
[2] = target: PTEN (phosphatase and tensin homolog) (human (endogenous in MCF-7)) (UniProt P60484); experiment: co-IP; MCF-7 cells lysed in RIPA buffer with 0.5 mM PMSF and protease inhibitors; cleared lysate with a specific antibody overnight at 4 °C, protein A-Sepharose beads 2 h; blot with anti-PTEN or anti-HSD17B8; PTEN knock-down line as control

binding [1]: binds
binding [2]: binds
B1: estradiol 17-beta-dehydrogenase 8 (HSD17B8) (protein, UniProt Q92506 1-261)
chain: MASQLQNRLRSALALVTGAGSGIGRAVSVRLAGEGATVAACDLDRAAAQETVRLLGGPGSKEGPPRGNHAAFQADVSEARAARCLLEQVQACFSRPPSVVVSCAGITQDEFLLHMSEDDWDKVIAVNLKGTFLVTQAAAQALVSNGCRGSIINISSIVGKVGNVGQTNYAASKAGVIGLTQTAARELGRHGIRCNSVLPGFIATPMTQKVPQKVVDKITEMIPMGHLGDPEDVADVVAFLASEDSGYITGTSVEVTGGLFM
